PubChem BioAssay AID1508597, Cure First – 2020
This is an unselected part of the about 2,100 reagents, under one of the conditions tested. 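Calls flag viability under 80% in either arm, not effects specific to rucaparib; the reference for percent is not stated.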 Some reagents were tested in more than one well and are listed for each. Not stated in the record: the 100% reference.

Purpose: 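Survival screen with siRNA in ovarian cancer cells derived from patients, with or without rucaparib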 (primary screen)
Cell system: human ovarian carcinoma lines grown from tumours: OCI-P5x (papillary serous) and OCI-C5x (clear cell)
Knock-down reagent: siRNA pool against human genes, 1.25 pmol siRNA per well
Duration: 72 h or 96 h, depending on the cell culture
Challenge: rucaparib 20 µM (about IC30) or vehicle, present until read-out
Rucaparib or vehicle: Rucaparib
Cell line: OCI-C5x (clear cell)
Measured: 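Luminescent ATP-based viability assay read 72 or 96 h after transfection, depending on culture, given as normalised percent viability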
Direction: viability, normalised: higher = more viable cells remaining
Active means: 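Active when normalised viability falls below 80 percent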
Meaning of the calls: active = viability under 80%; inactive = viability 80% or more

| target gene | technical replicate | viability, normalised (%) | Outcome |
| --- | --- | --- | --- |
| HDGFL3 | 1 | 45.5 | active |
| HDGFL3 | 2 | 34.8 | active |
| HDGFL3 | 3 | 46.3 | active |
| AKAP1 | 1 | 47.3 | active |
| AKAP1 | 2 | 35.7 | active |
| AKAP1 | 3 | 45.1 | active |
| TRMT6 | 1 | 47.6 | active |
| TRMT6 | 2 | 65.7 | active |
| TRMT6 | 3 | 71.7 | active |
| CHMP4C | 1 | 62.9 | active |
| CHMP4C | 2 | 38.2 | active |
| CHMP4C | 3 | 50.8 | active |
| BAZ2B | 1 | 35 | active |
| BAZ2B | 2 | 42.2 | active |
| BAZ2B | 3 | 35.9 | active |
| DPH5 | 1 | 32.7 | active |
| DPH5 | 2 | 32.7 | active |
| DPH5 | 3 | 27.5 | active |
| PCBD1 | 1 | 34.8 | active |
| PCBD1 | 2 | 52 | active |
| PCBD1 | 3 | 36.6 | active |

Continued; the last 7 above are carried over.
| target gene | technical replicate | viability, normalised (%) | Outcome |
| --- | --- | --- | --- |
| BAZ2B | 3 | 35.9 | active |
| DPH5 | 1 | 32.7 | active |
| DPH5 | 2 | 32.7 | active |
| DPH5 | 3 | 27.5 | active |
| PCBD1 | 1 | 34.8 | active |
| PCBD1 | 2 | 52 | active |
| PCBD1 | 3 | 36.6 | active |
| XYLB | 1 | 48.3 | active |
| XYLB | 2 | 48 | active |
| XYLB | 3 | 50.7 | active |
| CAMKV | 1 | 62.5 | active |
| CAMKV | 2 | 50.9 | active |
| CAMKV | 3 | 53.8 | active |
| BAHD1 | 1 | 52.9 | active |
| BAHD1 | 2 | 47.1 | active |
| BAHD1 | 3 | 39 | active |
| PRMT2 | 1 | 68.9 | active |
| PRMT2 | 2 | 51.8 | active |
| PRMT2 | 3 | 44.7 | active |
| JAK2 | 1 | 42.3 | active |
| JAK2 | 1 | 70.9 | active |
| JAK2 | 2 | 66.8 | active |
| JAK2 | 2 | 37.9 | active |
| JAK2 | 3 | 38.4 | active |
| JAK2 | 3 | 68.9 | active |
| DDX18 | 1 | 53.2 | active |
| DDX18 | 2 | 51.6 | active |
| DDX18 | 3 | 42.2 | active |
| ULK4 | 1 | 47.3 | active |
| ULK4 | 2 | 50.9 | active |
| ULK4 | 3 | 32.2 | active |
| AIRE | 1 | 51.7 | active |
| AIRE | 2 | 50 | active |
| AIRE | 3 | 45.3 | active |
| PHF19 | 1 | 38 | active |
| PHF19 | 2 | 47.6 | active |
| PHF19 | 3 | 34.2 | active |
| PI4K2B | 1 | 65.3 | active |
| PI4K2B | 2 | 53.7 | active |
| PI4K2B | 3 | 58.5 | active |
| FTO | 1 | 38.2 | active |
| FTO | 2 | 36.8 | active |
| FTO | 3 | 42.9 | active |
